{"source": "patent US12440501B2", "about": "“Cannabinoid compositions and methods of use thereof for immune modulation” (SRIN Therapeutics, Inc., priority 2019, dated 2025)", "origin": "cited, not measured here", "system": "BRAF V600E mutation-positive advanced melanoma", "conditions": "clinical trial data", "note": "Some entries share one result that the patent states for a list of compounds. At least one structure is not confirmed: it was looked up by name or label, or the drawing left a doubt."}
{"smiles": "CC(=O)Nc1cccc(-n2c(=O)n(C3CC3)c(=O)c3c(Nc4ccc(I)cc4F)n(C)c(=O)c(C)c32)c1", "note": "[trametinib]", "values": [{"measurement": "time within which resistance occurs", "result": "6 to 7", "unit": "months"}]}
